Results taken from paper PMC9065627.
No constants are given. Whether binding was seen depends on the method and setting. For part of these data: In cells and extracts the contact can be indirect. Some binding calls cover weakened binding; strength is not graded here. For part of these data: Tags and fused reporters may be left off the sequences shown.

Amino acid sequences for entries named in this document (tags omitted). A change or cut given only in a name is not applied to a line headed by its entry.
UniProt P18242: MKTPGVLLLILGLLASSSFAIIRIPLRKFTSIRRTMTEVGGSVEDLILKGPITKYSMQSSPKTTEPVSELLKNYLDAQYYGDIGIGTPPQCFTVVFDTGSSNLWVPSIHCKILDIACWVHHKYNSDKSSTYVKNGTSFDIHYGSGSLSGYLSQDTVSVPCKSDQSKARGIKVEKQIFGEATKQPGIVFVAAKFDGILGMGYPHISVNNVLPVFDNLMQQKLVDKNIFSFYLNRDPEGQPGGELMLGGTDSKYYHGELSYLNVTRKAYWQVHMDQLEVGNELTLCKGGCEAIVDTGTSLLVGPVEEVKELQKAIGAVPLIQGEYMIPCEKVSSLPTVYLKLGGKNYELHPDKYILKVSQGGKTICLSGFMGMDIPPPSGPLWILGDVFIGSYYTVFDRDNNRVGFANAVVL

How the values were obtained:
[1] = target: T1, GAL4 DNA-BD-cMyc-A2AR^284–410 (C-terminal tail of mouse adenosine A2A receptor, two-hybrid bait) (mouse) (UniProt Q60613); assay: two-hybrid; library screen by mating: bait BD-cMyc-A2AR^284–410 in Y2H Gold, prey mouse IPMΦ cDNA library (pGADT7-Rec) in Y187; diploids selected on SD/-Leu/-Trp then SD/-Ade/-His/-Leu/-Trp with X-alpha-Gal and Aureobasidin A
T1 sequence: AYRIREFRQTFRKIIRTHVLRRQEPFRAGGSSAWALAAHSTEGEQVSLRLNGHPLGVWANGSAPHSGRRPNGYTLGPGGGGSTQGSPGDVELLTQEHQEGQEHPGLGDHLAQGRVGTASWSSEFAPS

[2] = target: T1, GAL4 DNA-BD-cMyc-A2AR^284–410 (C-terminal tail of mouse adenosine A2A receptor, two-hybrid bait) (mouse); assay: two-hybrid; pairwise retransformation of Y2H Gold with pGBKT7-A2AR^284–410 and pGADT7-CtsD^321–410, four independent colonies; SD/Leu- Trp- Ade- His- with Aureobasidin and X-α-Gal
[3] = target: T2, cMyc-A2AR^284–410 (C terminus of mouse A2AR tagged with the cMyc epitope) (mouse) (UniProt Q60613); assay: co-IP; RAW 264.7 cells transfected with pCMV-cMyc-A2AR^284–410; lysate in RIPA/PBS; IP with anti-cMyc antibody and Protein G magnetic beads, 4 °C overnight; blot with anti-CtsD; isotype IgG1 as control
T2 sequence: T1 sequence

[4] = target: endogenous adenosine A2A receptor (A2AR) of RAW 264.7 cells (mouse (endogenous in RAW 264.7)) (UniProt Q60613); assay: co-IP; endogenous proteins in RAW 264.7 lysate; IP with 8.5 μg anti-A2AR antibody and Protein G magnetic beads; blot with anti-CtsD; control without antibody; cells untreated or treated with LPS, CGS21680 or aspartyl protease inhibitor (Pepstatin A penetratin)
[5] = target: T3, GST-A2AR^284–410 (C terminus of mouse A2AR as a glutathione-S-transferase fusion protein) (mouse) (UniProt Q60613); assay: pull-down; GST or GST-A2AR^284–410 held on MagneGST beads, incubated with 145 μg IPMΦ cell lysate in RIPA buffer for 2 h at 4 °C; blot with anti-CtsD; only the target purified
T3 sequence: T1 sequence

“Gal4 AD-CtsD AA273–410 (cathepsin D fragment, two-hybrid prey clone) (from UniProt P18242 273-410) (domain or fragment)” was tested, and the binding [1] was “binds”.
In the case of “Gal4 AD-CtsD AA295–410 (cathepsin D fragment, two-hybrid prey clone) (from UniProt P18242 295-410) (domain or fragment)”, the binding [1] is reported as “binds”.
In the case of “Gal4 AD-CtsD^321–410 (cathepsin D C-terminal fragment, two-hybrid prey) (from UniProt P18242 321-410) (domain or fragment)”, the binding [1] is reported as “binds” and the binding [2] is reported as “binds”.
“intermediate CtsD (intermediate single-chain form of cathepsin D), endogenous in RAW 264.7 cells (from UniProt P18242 65-410) (enzyme)” was tested, and the binding [3] was “binds” and the binding [4] was “binds”.
For “intermediate CtsD (intermediate single-chain form of cathepsin D), endogenous in mouse peritoneal macrophages (IPMΦ) (from UniProt P18242 65-410) (enzyme)”, the binding [5] was “binds”.
“pro-CtsD (proform of cathepsin D), endogenous in RAW 264.7 cells (from UniProt P18242 21-410) (enzyme)” was tested, and the binding [3] was “binds”.
With “pro-CtsD (proform of cathepsin D), endogenous in mouse peritoneal macrophages (IPMΦ) (from UniProt P18242 21-410) (enzyme)” the binding [5] was “binds”.
